Data source: PubChem BioAssay AID1224828 (NIAID, 2016)
In all, the deposit lists about 17,000 reagents; shown is a random part of them. Over the whole deposit, 762 (4.5%) were called active. 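Active calls include both raised and lowered p65 entry, mostly lowered; wells with fewer than 50 cells lack a z-score.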 Raw values are not corrected between plates.

- Test: 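Regulators linking TLR4 signalling to p65 nuclear translocation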 (primary screen)
- System: mouse RAW264.7 G9 macrophage reporter cells (GFP-p65, Tnf promoter-mCherry)
- Reagent: siRNA pool against mouse genes, 100 nM
- Timing: 2 days siRNA transfection, then 40 min LPS before fixation
- Conditions: LPS (Salmonella minnesota R595) at 10 ng/ml
- Measured: 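Imaged p65 nuclear translocation ratio, normalised to the plate median, converted to robust z-scores and averaged across two replicates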
- Direction: p65 translocation robust z-score: higher = more nuclear NF-kappaB p65 after LPS than the plate median; nuclear/cytoplasmic p65 ratio: higher = more nuclear NF-kappaB p65
- Active means: 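Active if robust z is above 3.3 (negative regulators) or below -1.56, the Tlr4 control median (positive regulators); activity score 50 or more; control wells not called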
- Calls: active = hit (p65 shift raised or lowered); inactive = no clear change

Silencing of Erg (ETS transcription factor) resulted in: p65 translocation robust z-score -0.88; nuclear/cytoplasmic p65 ratio, rep 1 = 1.29; nuclear/cytoplasmic p65 ratio, rep 2 = 1.3; low cell count flag enough cells to score; inactive. Knock-down of Gga1 came out at: nuclear/cytoplasmic p65 ratio, rep 1 = 1.37; nuclear/cytoplasmic p65 ratio, rep 2 = 1.48; low cell count flag fewer than 50 cells per well; well left out of scoring; inactive. With knock-down of Prkab2 (protein kinase, AMP-activated, beta 2 non-catalytic subunit), the screen gave p65 translocation robust z-score 0.63; nuclear/cytoplasmic p65 ratio, rep 1 = 1.51; nuclear/cytoplasmic p65 ratio, rep 2 = 1.24; low cell count flag enough cells to score; inactive. After knock-down of Chac1 (ChaC, cation transport regulator 1) the results were p65 translocation robust z-score 0.22; nuclear/cytoplasmic p65 ratio, rep 1 = 1.37; nuclear/cytoplasmic p65 ratio, rep 2 = 1.5; low cell count flag enough cells to score; inactive. Otub2 (OTU domain, ubiquitin aldehyde binding 2) scored nuclear/cytoplasmic p65 ratio, rep 1 = 1.07; nuclear/cytoplasmic p65 ratio, rep 2 = 0.95; low cell count flag fewer than 50 cells per well; well left out of scoring; inactive. Scgn (secretagogin, EF-hand calcium binding protein) showed p65 translocation robust z-score 0.88; nuclear/cytoplasmic p65 ratio, rep 1 = 1.59; nuclear/cytoplasmic p65 ratio, rep 2 = 1.27; low cell count flag enough cells to score; inactive.

Afap1 (actin filament associated protein 1) gave p65 translocation robust z-score 0.42; nuclear/cytoplasmic p65 ratio, rep 1 = 1.46; nuclear/cytoplasmic p65 ratio, rep 2 = 1.38; low cell count flag enough cells to score; inactive. Fam135a (family with sequence similarity 135, member A) showed p65 translocation robust z-score 0.83; nuclear/cytoplasmic p65 ratio, rep 1 = 1.31; nuclear/cytoplasmic p65 ratio, rep 2 = 1.45; low cell count flag enough cells to score; inactive. Knock-down of Tspan18 (tetraspanin 18) came out at: nuclear/cytoplasmic p65 ratio, rep 1 = 1.55; nuclear/cytoplasmic p65 ratio, rep 2 = 1.45; low cell count flag fewer than 50 cells per well; well left out of scoring; inactive. With knock-down of Ints12 (integrator complex subunit 12) the results were p65 translocation robust z-score 0.57; nuclear/cytoplasmic p65 ratio, rep 1 = 1.75; nuclear/cytoplasmic p65 ratio, rep 2 = 1.4; low cell count flag enough cells to score; inactive. Des (desmin) gave p65 translocation robust z-score 1.72; nuclear/cytoplasmic p65 ratio, rep 1 = 1.81; nuclear/cytoplasmic p65 ratio, rep 2 = 1.81; low cell count flag enough cells to score; inactive. Silencing of Hrob (homologous recombination factor with OB-fold) resulted in: p65 translocation robust z-score 0.07; nuclear/cytoplasmic p65 ratio, rep 1 = 1.53; nuclear/cytoplasmic p65 ratio, rep 2 = 1.92; low cell count flag enough cells to score; inactive.

Silencing of Il18r1 (interleukin 18 receptor 1) gave: p65 translocation robust z-score -0.19; nuclear/cytoplasmic p65 ratio, rep 1 = 1.43; nuclear/cytoplasmic p65 ratio, rep 2 = 1.37; low cell count flag enough cells to score; inactive. Silencing of Stk11 (serine/threonine kinase 11) resulted in: p65 translocation robust z-score -1.59; nuclear/cytoplasmic p65 ratio, rep 1 = 1.63; nuclear/cytoplasmic p65 ratio, rep 2 = 1.18; low cell count flag enough cells to score; active. Prl2c3 (prolactin family 2, subfamily c, member 3) showed p65 translocation robust z-score 1.32; nuclear/cytoplasmic p65 ratio, rep 1 = 1.53; nuclear/cytoplasmic p65 ratio, rep 2 = 1.38; low cell count flag enough cells to score; inactive. Dab2ip (disabled 2 interacting protein) gave p65 translocation robust z-score 0.18; nuclear/cytoplasmic p65 ratio, rep 1 = 1.67; nuclear/cytoplasmic p65 ratio, rep 2 = 1.5; low cell count flag enough cells to score; inactive. Against Kif3a (kinesin family member 3A), the entry reads p65 translocation robust z-score -0.52; nuclear/cytoplasmic p65 ratio, rep 1 = 1.36; nuclear/cytoplasmic p65 ratio, rep 2 = 1.35; low cell count flag enough cells to score; inactive. With knock-down of Krr1 (KRR1 small subunit processome component), the record shows p65 translocation robust z-score -1.64; nuclear/cytoplasmic p65 ratio, rep 1 = 1.18; nuclear/cytoplasmic p65 ratio, rep 2 = 1.2; low cell count flag enough cells to score; active.

Silencing of Gnas (GNAS complex locus) resulted in: p65 translocation robust z-score 0.6; nuclear/cytoplasmic p65 ratio, rep 1 = 1.55; nuclear/cytoplasmic p65 ratio, rep 2 = 1.71; low cell count flag enough cells to score; inactive. After knock-down of Fgg (fibrinogen gamma chain), the screen gave p65 translocation robust z-score 1.56; nuclear/cytoplasmic p65 ratio, rep 1 = 1.62; nuclear/cytoplasmic p65 ratio, rep 2 = 1.59; low cell count flag enough cells to score; inactive. Lama3 (laminin, alpha 3) showed p65 translocation robust z-score 0.6; nuclear/cytoplasmic p65 ratio, rep 1 = 1.57; nuclear/cytoplasmic p65 ratio, rep 2 = 1.44; low cell count flag enough cells to score; inactive.
